Experiment [1] deals with ReNCell VM. In words: neuronal differentiation score (DCX+ cell fraction vs untreated, manual image score) (score (-3 to 3)); higher = more neuronal differentiation. As to conditions: 2 uM, 2 weeks.
Experiment [2] deals with ReNCell VM. In words: dopaminergic neuron differentiation score (TH+ cell fraction vs untreated, manual image score) (score (0 to 3)); higher = more TH+ dopaminergic neuron differentiation. As to conditions: 2 uM, 4 weeks, BDNF 10 ng/ml + GDNF 10 ng/ml.

Counter-ions that a name gives are not always drawn. The list shows a part of the results. Repeats in this data set agree poorly, so a single value says little.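 Cells: ReNCell VM human fetal ventral-midbrain neural progenitors, differentiated mitogen-free. Blinded raters compared doublecortin-stained (early neurons) or tyrosine hydroxylase-stained (dopaminergic neurons) images with untreated wells, where 0 means no change. After repeats and both raters were averaged, compounds scoring 2 or above became hits for retesting.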

Take `COc1cc(C(=O)O)cc(OC)c1O`: in the experiment with ReNCell VM [1] (library: Spectrum), the neuronal differentiation score is inactive: 0. Also, in the experiment on ReNCell VM [2] (library: Spectrum), the “dopaminergic neuron differentiation score” value was inactive: 0.
As to `CC(C)CCCC(C)NC(C)C` (stereo not drawn), in the experiment with ReNCell VM [1] (library: Spectrum), the neuronal differentiation score is inactive: 0. The “dopaminergic neuron differentiation score” value in the experiment on ReNCell VM [2] (library: Spectrum) was inactive: 0.
Take `C[C@@H](CN1CC(=O)NC(=O)C1)N1CC(=O)NC(=O)C1` [Dexrazoxane hydrochloride]: in the experiment with ReNCell VM [1] (library: Tocriscreen), the neuronal differentiation score is inactive: 0. The “dopaminergic neuron differentiation score” value in the experiment with ReNCell VM [2] (library: Tocriscreen) was inactive: 0.
On to `CC(CN(C)C)CN1c2ccccc2Sc2ccccc21` (stereo not drawn) [Trimeprazine tartrate], for which, in the experiment with ReNCell VM [1] (library: Prestwick), the neuronal differentiation score was inactive: 0. For the same compound, in the experiment on ReNCell VM [2] (library: Prestwick), the “dopaminergic neuron differentiation score” value is inactive: 0.
Turning to `O=C1CCC(c2ccc(-n3ccnc3)cc2)=NN1` [Imazodan], the neuronal differentiation score in the experiment with ReNCell VM [1] (library: LOPAC) was inactive: 0. Also, the “dopaminergic neuron differentiation score” value with ReNCell VM [2] (library: LOPAC) is inactive: 0.
For `CC(=O)O[C@@H]1C[C@H]2C(C)(C)C(=O)C=C[C@]2(C)[C@H]2CC[C@@]3(C)[C@H](c4ccoc4)OC(=O)[C@H]4O[C@]43[C@@]21C`, the neuronal differentiation score in the experiment on ReNCell VM [1] (library: Spectrum) is inactive: 0. Also, the “dopaminergic neuron differentiation score” value in the experiment on ReNCell VM [2] (library: Spectrum) was inactive: 0.
`O=C(O)Cc1ccc(O)c(O)c1` [3,4-Dihydroxyphenylacetic acid]: the neuronal differentiation score in the experiment on ReNCell VM [1] (library: LOPAC) is inactive: 0. Also, in the experiment with ReNCell VM [2] (library: LOPAC), the “dopaminergic neuron differentiation score” value was inactive: 0.
In the case of `CC(CCC(=O)O)[C@H]1CCC2C3C[C@H](O)[C@@H]4C[C@H](O)CC[C@]4(C)C3CC[C@@]21C` (stereo partly drawn) [alpha-HYDROXYDEOXYCHOLIC ACID], the neuronal differentiation score in the experiment with ReNCell VM [1] (library: Spectrum) is inactive: 0. Moreover, the “dopaminergic neuron differentiation score” value with ReNCell VM [2] (library: Spectrum) is inactive: 0.
Turning to `CCc1ccc(CCOc2ccc(CC3SC(=O)NC3=O)cc2)nc1` (stereo not drawn), the neuronal differentiation score in the experiment on ReNCell VM [1] (library: Spectrum) was inactive: 0. Besides, the “dopaminergic neuron differentiation score” value with ReNCell VM [2] (library: Spectrum) was inactive: 0.
Take `CC(=O)O[C@@H]1C[C@H]2C(C)(C)C(=O)C=C[C@]2(C)[C@H]2CC[C@@]3(C)[C@H](c4ccoc4)OC(=O)[C@H]4O[C@]43[C@@]21C` [Gedunin]: the neuronal differentiation score in the experiment on ReNCell VM [1] (library: Tocriscreen) is inactive: 0. In the experiment with ReNCell VM [2] (library: Tocriscreen), the “dopaminergic neuron differentiation score” value is inactive: 0.
As to `Nc1nc2ccc(OC(F)(F)F)cc2s1`, the neuronal differentiation score in the experiment on ReNCell VM [1] (library: Spectrum) was inactive: 0. Besides, in the experiment on ReNCell VM [2] (library: Spectrum), the “dopaminergic neuron differentiation score” value was inactive: 0.
For the compound `CNCCc1ccccn1` [Betahistine mesylate], the neuronal differentiation score in the experiment on ReNCell VM [1] (library: Prestwick) is inactive: 0. The “dopaminergic neuron differentiation score” value in the experiment with ReNCell VM [2] (library: Prestwick) is inactive: 0.
On to `O=C(NCC(O)CO)c1c(I)c(C(=O)NCC(O)CO)c(I)c(N(CCO)C(=O)CO)c1I` (stereo not drawn), for which the neuronal differentiation score with ReNCell VM [1] (library: Spectrum) was inactive: 0. The “dopaminergic neuron differentiation score” value in the experiment with ReNCell VM [2] (library: Spectrum) was inactive: 0.
Take `CN(C)CCOC(=O)COc1ccc(Cl)cc1`: the neuronal differentiation score with ReNCell VM [1] (library: Spectrum) is inactive: 0. Besides, the “dopaminergic neuron differentiation score” value in the experiment on ReNCell VM [2] (library: Spectrum) is inactive: 0.
Turning to `CCCOc1ccc(Br)cc1-c1cc(-c2ccc(Cl)cc2)[nH]c1-c1ccncc1`, the neuronal differentiation score in the experiment with ReNCell VM [1] (library: Tocriscreen) is inactive: 0. The “dopaminergic neuron differentiation score” value in the experiment on ReNCell VM [2] (library: Tocriscreen) was inactive: 0.
For the compound `O=C1C=C(O)c2ccccc2C1=O` [2-Hydroxy-[1,4]naphthoquinone], the neuronal differentiation score with ReNCell VM [1] (library: Phytochemical) is inactive: 0. The “dopaminergic neuron differentiation score” value in the experiment on ReNCell VM [2] (library: Phytochemical) was inactive: 0.
Consider `CCOc1cccc(C(=O)c2ccc(O)c(O)c2O)c1`, for which, in the experiment on ReNCell VM [1] (library: Spectrum), the neuronal differentiation score is inactive: 0. Also, the “dopaminergic neuron differentiation score” value with ReNCell VM [2] (library: Spectrum) was inactive: 0.
Take `O=C(O)CCC(=O)Nc1ccc(S(=O)(=O)Nc2nccs2)cc1` [Succinylsulfathiazole]: the neuronal differentiation score in the experiment with ReNCell VM [1] (library: Prestwick) was inactive: 0. Besides, the “dopaminergic neuron differentiation score” value with ReNCell VM [2] (library: Prestwick) is inactive: 0.
As to `COC1CCC(C(=O)c2ccc3nc4c(cc3c2)CCCO4)CC1` (stereo not drawn), the neuronal differentiation score in the experiment on ReNCell VM [1] (library: Tocriscreen) was inactive: 0. In the experiment with ReNCell VM [2] (library: Tocriscreen), the “dopaminergic neuron differentiation score” value is inactive: 0.
Consider `COc1ccc(C(=O)c2ccc(C)cc2)c(O)c1`, for which the neuronal differentiation score in the experiment on ReNCell VM [1] (library: Spectrum) is inactive: 0. The “dopaminergic neuron differentiation score” value in the experiment on ReNCell VM [2] (library: Spectrum) was inactive: 0.
On to `Cc1scc2c1N(C(=O)CN1CCN(C)CC1)c1ccccc1NC2=O`, for which, in the experiment with ReNCell VM [1] (library: Spectrum), the neuronal differentiation score was inactive: 0. Also, the “dopaminergic neuron differentiation score” value in the experiment on ReNCell VM [2] (library: Spectrum) was inactive: 0.
`C[Se]CC[C@H](N)C(=O)O`: the neuronal differentiation score in the experiment on ReNCell VM [1] (library: Spectrum) was inactive: 0. Further, in the experiment with ReNCell VM [2] (library: Spectrum), the “dopaminergic neuron differentiation score” value is inactive: 0.
Take `NCCCS(=O)(=O)O`: the neuronal differentiation score in the experiment on ReNCell VM [1] (library: Spectrum) is inactive: 0. The “dopaminergic neuron differentiation score” value in the experiment with ReNCell VM [2] (library: Spectrum) was inactive: 0.
For `C1CCC2(CC1)CCNCC2` [4,4-Pentamethylenepiperidine hydrochloride], the neuronal differentiation score in the experiment with ReNCell VM [1] (library: Tocriscreen) is inactive: 0. Also, the “dopaminergic neuron differentiation score” value in the experiment on ReNCell VM [2] (library: Tocriscreen) is inactive: 0.
For `COc1ccc2c(c1)OCc1c-2oc2cc(OC)ccc12`, the neuronal differentiation score in the experiment on ReNCell VM [1] (library: Spectrum) was inactive: 0. Besides, the “dopaminergic neuron differentiation score” value with ReNCell VM [2] (library: Spectrum) is inactive: 0.
With `Clc1cnccn1` [2-Chloropyrazine], the neuronal differentiation score in the experiment with ReNCell VM [1] (library: Prestwick) was inactive: 0. Besides, in the experiment with ReNCell VM [2] (library: Prestwick), the “dopaminergic neuron differentiation score” value was inactive: 0.
Turning to `N[C@@H](CS(=O)O)C(=O)O` [L-Cysteinesulfinic Acid], the neuronal differentiation score with ReNCell VM [1] (library: LOPAC) was inactive: 0. The “dopaminergic neuron differentiation score” value with ReNCell VM [2] (library: LOPAC) is inactive: 0.
`N[C@H]1C(O)O[C@H](CO)[C@@H](O)[C@@H]1O` (stereo partly drawn): the neuronal differentiation score with ReNCell VM [1] (library: Spectrum) is inactive: 0. The “dopaminergic neuron differentiation score” value in the experiment with ReNCell VM [2] (library: Spectrum) is inactive: 0.
Turning to `COc1ccccc1N1CCN(CC(O)COc2cccc3ccccc23)CC1` (stereo not drawn) [Naftopidil hydrochloride], in the experiment on ReNCell VM [1] (library: Tocriscreen), the neuronal differentiation score is inactive: 0. In addition, in the experiment with ReNCell VM [2] (library: Tocriscreen), the “dopaminergic neuron differentiation score” value is inactive: 0.
Consider `CCOC(=O)CCC(=O)O[C@H]1[C@H](O[C@@H]2[C@@H](C)[C@H](O[C@H]3C[C@@](C)(OC)[C@@H](O)[C@H](C)O3)[C@@H](C)C(=O)O[C@H](CC)[C@@](C)(O)[C@H](O)[C@@H](C)C(=O)[C@H](C)C[C@@]2(C)O)O[C@H](C)C[C@@H]1N(C)C`, for which the neuronal differentiation score with ReNCell VM [1] (library: Spectrum) is inactive: 0. Also, the “dopaminergic neuron differentiation score” value in the experiment on ReNCell VM [2] (library: Spectrum) was inactive: 0.
For `CC1CCc2c(N3CCC(O)CC3)c(F)cc3c(=O)c(C(=O)O)cn1c23` (stereo not drawn), in the experiment on ReNCell VM [1] (library: Spectrum), the neuronal differentiation score is inactive: 0. Also, the “dopaminergic neuron differentiation score” value in the experiment with ReNCell VM [2] (library: Spectrum) was inactive: 1.
Consider `CC(=O)OCC(=O)[C@H]1CC[C@H]2[C@@H]3CCC4=CC(=O)CC[C@]4(C)[C@H]3CC[C@]12C`, for which the neuronal differentiation score in the experiment on ReNCell VM [1] (library: Spectrum) is inactive: 0. Moreover, the “dopaminergic neuron differentiation score” value with ReNCell VM [2] (library: Spectrum) is inactive: 0.
For the compound `O=C(O)c1ccccc1Cc1c(Oc2ccccc2)oc2cc(O)ccc2c1=O` [7-hydroxy-2-phenoxy-3-(2-carboxybenzyl)chromone], in the experiment on ReNCell VM [1] (library: Natural), the neuronal differentiation score is inactive: 0. Further, the “dopaminergic neuron differentiation score” value in the experiment with ReNCell VM [2] (library: Natural) was inactive: 0.
With `COc1cc2c(cc1OC)OC(C)(C)C=C2` [Precocene 2], the neuronal differentiation score in the experiment with ReNCell VM [1] (library: Phytochemical) was inactive: 0. The “dopaminergic neuron differentiation score” value with ReNCell VM [2] (library: Phytochemical) was inactive: 0.

Values taken from the supplement of paper PMC4635364.
